Measurements reported in PubChem BioAssay AID743121 (NCATS, 2013).

Purpose: 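Genes whose silencing strengthens cell killing by camptothecin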 (primary screen)
Cells: MDA-MB-231 cells, a human breast cancer line
Reagent: single siRNA against human genes, 20 nM siRNA (0.8 pmol per well)
Time to read-out: 120 h (drug added 48 h after transfection, read 72 h later)
Treatment: camptothecin 20 nM (about EC30) for 72 h; vehicle 0.1% DMSO in parallel plates
Detection: 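CellTiter-Glo ATP signal, scaled to control siRNA as percent viability; sensitisation given as log2 of untreated divided by camptothecin-treated viability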
Reading the numbers: log2 vehicle/camptothecin viability: higher = stronger sensitisation to camptothecin; viability with camptothecin and viability without drug: higher = more viable cells
Rule for the call: 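Active genes have an RSA gene-level p-value below 0.001, computed from the ratios of their separate siRNAs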
This is an unselected part of about 26,000 reagents. Of all reagents, 167 (0.63%) got an active call. 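Calls are per gene from RSA p-values that are not deposited; an individual active-marked siRNA can sensitise only weakly.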 Entries without a mark were called inactive. The numbers tell different reagents against one gene apart. No sequences are given here.

target,siRNA no.,log2 vehicle/camptothecin viability,viability with camptothecin (% of control),viability without drug (% of control)
ANTXR1 (ANTXR cell adhesion molecule 1),1,0.131,85.4,93.5
ANTXR1 (ANTXR cell adhesion molecule 1),2,-0.293,58.2,47.5
ANTXR1 (ANTXR cell adhesion molecule 1),3,0.186,65,74
ANTXR1 (ANTXR cell adhesion molecule 1),4,-0.0595,111,106
GIT2 (GIT ArfGAP 2),1,0.621 (active),63.7,98
GIT2 (GIT ArfGAP 2),2,0.721 (active),56.5,93.1
GIT2 (GIT ArfGAP 2),3,-0.125 (active),45.4,41.7
GIT2 (GIT ArfGAP 2),4,0.841 (active),15.6,27.8
SMAD1 (SMAD family member 1),1,-0.0218,64.3,63.3
SMAD1 (SMAD family member 1),2,-0.2,57.4,50
SMAD1 (SMAD family member 1),3,-0.636,92.1,59.2
AREL1 (apoptosis resistant E3 ubiquitin protein ligase 1),1,-0.166,100,89.4
AREL1 (apoptosis resistant E3 ubiquitin protein ligase 1),2,0.577,14.5,21.6
AREL1 (apoptosis resistant E3 ubiquitin protein ligase 1),3,-0.694,17.5,10.8
RHO (rhodopsin),1,-0.673,100,63
RHO (rhodopsin),2,0.105,61.4,66
RHO (rhodopsin),3,-0.212,136,118
RHO (rhodopsin),4,-0.385,74.1,56.8
PARP2 (poly(ADP-ribose) polymerase 2),1,-0.338,97.3,77
PARP2 (poly(ADP-ribose) polymerase 2),2,-0.234,101,85.6
PARP2 (poly(ADP-ribose) polymerase 2),3,0.139,95.3,105
PARP2 (poly(ADP-ribose) polymerase 2),4,-0.268,74.5,61.8
TRIB3 (tribbles pseudokinase 3),1,0.599,46.6,70.6
TRIB3 (tribbles pseudokinase 3),2,0.178,94.5,107
TRIB3 (tribbles pseudokinase 3),3,-0.681,32.2,20.1
TRIB3 (tribbles pseudokinase 3),4,-0.309,15.4,12.4
TRIB3 (tribbles pseudokinase 3),5,-0.000336,103,102
HTRA2 (HtrA serine peptidase 2),1,0.419,48.2,64.4
HTRA2 (HtrA serine peptidase 2),2,-0.245,78.4,66.2
HTRA2 (HtrA serine peptidase 2),3,0.267,65.6,79
HTRA2 (HtrA serine peptidase 2),4,-0.472,98.5,71
ALOX12P2 (arachidonate 12-lipoxygenase pseudogene 2),1,-0.0196,65.9,65.1
ALOX12P2 (arachidonate 12-lipoxygenase pseudogene 2),2,-0.315,46.6,37.4
ALOX12P2 (arachidonate 12-lipoxygenase pseudogene 2),3,0.78,31.3,53.7
TRIM6 (tripartite motif containing 6),1,-0.698,60.3,37.2
TRIM6 (tripartite motif containing 6),2,-0.0275,51.7,50.7
TRIM6 (tripartite motif containing 6),3,0.207,21.9,25.3
TRIM6 (tripartite motif containing 6),4,-0.142,94.6,85.7
PHF7 (PHD finger protein 7),1,-0.167,84.1,74.9
PHF7 (PHD finger protein 7),2,-0.668,88,55.4
PHF7 (PHD finger protein 7),3,0.057,109,113
PHF7 (PHD finger protein 7),4,0.405,69.2,91.6
FBN2 (fibrillin 2),1,0.0101,85.5,86.1
FBN2 (fibrillin 2),2,-0.321,63.7,51
FBN2 (fibrillin 2),3,-0.0917,115,108
FBN2 (fibrillin 2),4,-0.7,108,66.7
STYX (serine/threonine/tyrosine interacting protein),1,-0.127,71.9,65.8
STYX (serine/threonine/tyrosine interacting protein),2,-0.091,106,99.5
STYX (serine/threonine/tyrosine interacting protein),3,-0.217,79.8,68.6
STYX (serine/threonine/tyrosine interacting protein),4,-0.218,80.9,69.5
TCF3 (transcription factor 3),1,-0.0951,76.6,71.7
TCF3 (transcription factor 3),2,0.0793,16,16.9
TCF3 (transcription factor 3),3,-0.224,104,89.3
TCF3 (transcription factor 3),4,-0.187,69,60.6
PTOV1 (PTOV1 extended AT-hook containing adaptor protein),1,0.301,75.2,92.7
PTOV1 (PTOV1 extended AT-hook containing adaptor protein),2,-0.412,36.8,27.7
PTOV1 (PTOV1 extended AT-hook containing adaptor protein),3,-0.148,94.8,85.6
PTOV1 (PTOV1 extended AT-hook containing adaptor protein),4,-0.228,33.3,28.5
MAN2C1 (mannosidase alpha class 2C member 1),1,-0.0157,88.8,87.8
MAN2C1 (mannosidase alpha class 2C member 1),2,-0.134,68.3,62.3
MAN2C1 (mannosidase alpha class 2C member 1),3,-0.142,107,96.8
MAN2C1 (mannosidase alpha class 2C member 1),4,0.0806,79.3,83.8
PRSS55 (serine protease 55),1,-0.0576,93.3,89.7
PRSS55 (serine protease 55),2,0.0385,28.8,29.6
PRSS55 (serine protease 55),3,-0.153,64.6,58.1
PRSS55 (serine protease 55),4,-0.349,75.9,59.6
PANK3 (pantothenate kinase 3),1,-0.576,37.6,25.2
PANK3 (pantothenate kinase 3),2,-0.284,120,98.4
PANK3 (pantothenate kinase 3),3,-0.4,97.4,73.8
PANK3 (pantothenate kinase 3),4,-0.0114,73.5,72.9

Part of the list above in another layout:
FBN2 (fibrillin 2) #1
- log2 vehicle/camptothecin viability: 0.0101
- viability with camptothecin (% of control): 85.5
- viability without drug (% of control): 86.1

FBN2 (fibrillin 2) #2
- log2 vehicle/camptothecin viability: -0.321
- viability with camptothecin (% of control): 63.7
- viability without drug (% of control): 51

FBN2 (fibrillin 2) #3
- log2 vehicle/camptothecin viability: -0.0917
- viability with camptothecin (% of control): 115
- viability without drug (% of control): 108

FBN2 (fibrillin 2) #4
- log2 vehicle/camptothecin viability: -0.7
- viability with camptothecin (% of control): 108
- viability without drug (% of control): 66.7

STYX (serine/threonine/tyrosine interacting protein) #1
- log2 vehicle/camptothecin viability: -0.127
- viability with camptothecin (% of control): 71.9
- viability without drug (% of control): 65.8

STYX (serine/threonine/tyrosine interacting protein) #2
- log2 vehicle/camptothecin viability: -0.091
- viability with camptothecin (% of control): 106
- viability without drug (% of control): 99.5

STYX (serine/threonine/tyrosine interacting protein) #3
- log2 vehicle/camptothecin viability: -0.217
- viability with camptothecin (% of control): 79.8
- viability without drug (% of control): 68.6

STYX (serine/threonine/tyrosine interacting protein) #4
- log2 vehicle/camptothecin viability: -0.218
- viability with camptothecin (% of control): 80.9
- viability without drug (% of control): 69.5
